From patent CN113999308A
Results are given in words; binding and its absence hold for the method and conditions named. Some entries that bind do so weakly or less than the wild type.

How the values were obtained:
[1] = target: T1, CDH17蛋白细胞外段1~3结构域 (recombinant CDH17 extracellular domains 1-3) (human) (UniProt Q12864); experiment: ELISA on CDH17 domains 1-3 (Fig. 5A)
T1 sequence (looked up): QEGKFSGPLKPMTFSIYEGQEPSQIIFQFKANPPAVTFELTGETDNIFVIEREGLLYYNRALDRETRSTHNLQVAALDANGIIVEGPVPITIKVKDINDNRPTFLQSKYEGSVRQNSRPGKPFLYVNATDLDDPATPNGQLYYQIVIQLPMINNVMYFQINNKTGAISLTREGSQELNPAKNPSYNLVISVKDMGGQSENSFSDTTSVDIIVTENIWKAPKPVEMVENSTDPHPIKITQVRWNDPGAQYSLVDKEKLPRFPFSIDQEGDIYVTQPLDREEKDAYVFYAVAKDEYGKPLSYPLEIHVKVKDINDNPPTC

[2] = target: T1, CDH17蛋白细胞外段1~3结构域 (recombinant CDH17 extracellular domains 1-3) (human); experiment: ELISA with purified nanobodies on hCDH17 (Fig. 3C)

binding [1]: binds | binding [2]: binds
B1: Nb193纳米抗体 (Nb193 nanobody) (VHH, not shown: small tags and cut ends)
VHH: AVQLVESGGGLVQAGGSLRLSCVASGSTLERYAVYWYRQPPGKERELVAGIMRGGNINYADSVKGRFTISKDYAKNTLILQMNSLKPEDTAVYYCNAGGSRFGYWGQGTQVTVSS
